Here are results for 23 molecules from patent US20260022160A1 (AFFYXELL THERAPEUTICS, published 2026).

Results are given in words; binding and its absence hold for the method and conditions named. Some results given as binding are weak or reduced against the parent protein; the word gives no strength.

The chains are these.
B1: clone-230 DS (tetramer with a rigid linker) (designed binder)
chain: IPGGLSEAKPATPEIQEIVDKVKPQLEEKTGETYGKLEAVQYKTQVVHYYVHYNDQGTNYYIKVRAGDNKYMHLKVFKSLWGENLFAKWEDLVLTGYQVDKNKDDELTGFAEAAAKEAAAKEAAAKEAAAKEAAAKEAAAKMIPGGLSEAKPATPEIQEIVDKVKPQLEEKTGETYGKLEAVQYKTQVVHYYVHYNDQGTNYYIKVRAGDNKYMHLKVFKSLWGENLFAKWEDLVLTGYQVDKNKDDELTGFAEAAAKEAAAKEAAAKEAAAKEAAAKEAAAKMIPGGLSEAKPATPEIQEIVDKVKPQLEEKTGETYGKLEAVQYKTQVVHYYVHYNDQGTNYYIKVRAGDNKYMHLKVFKSLWGENLFAKWEDLVLTGYQVDKNKDDELTGFAEAAAKEAAAKEAAAKEAAAKEAAAKEAAAKMIPGGLSEAKPATPEIQEIVDKVKPQLEEKTGETYGKLEAVQYKTQVVHYYVHYNDQGTNYYIKVRAGDNKYMHLKVFKSLWGENLFAKWEDLVLTGYQVDKNKDDELTGF
B2: clone-230 DT (trimer with a rigid linker) (designed binder)
chain: IPGGLSEAKPATPEIQEIVDKVKPQLEEKTGETYGKLEAVQYKTQVVHYYVHYNDQGTNYYIKVRAGDNKYMHLKVFKSLWGENLFAKWEDLVLTGYQVDKNKDDELTGFAEAAAKEAAAKEAAAKEAAAKEAAAKEAAAKMIPGGLSEAKPATPEIQEIVDKVKPQLEEKTGETYGKLEAVQYKTQVVHYYVHYNDQGTNYYIKVRAGDNKYMHLKVFKSLWGENLFAKWEDLVLTGYQVDKNKDDELTGFAEAAAKEAAAKEAAAKEAAAKEAAAKEAAAKMIPGGLSEAKPATPEIQEIVDKVKPQLEEKTGETYGKLEAVQYKTQVVHYYVHYNDQGTNYYIKVRAGDNKYMHLKVFKSLWGENLFAKWEDLVLTGYQVDKNKDDELTGF
B3: stefin A protein variant clone 294 (designed binder)
chain: MIPGGLSEAKPATPEIQEIVDKVKPQLEEKTGETYGKLEAVQYKTQVVGNAAWGSFAGTNYYIKVRAGDNKYMHLKVFKSLPFFYRKDNPEDLVLTGYQVDKNKDDELTGF
B4: stefin A protein variant clone 278 (designed binder)
chain: MIPGGLSEAKPATPEIQEIVDKVKPQLEEKTGETYGKLEAVQYKTQVVKIGQLPSRVGTNYYIKVRAGDNKYMHLKVFKSLYWYRNPADREDLVLTGYQVDKNKDDELTGF
B5: stefin A protein variant clone 273 (designed binder)
chain: MIPGGLSEAKPATPEIQEIVDKVKPQLEEKTGETYGKLEAVQYKTQVVSWRYKSNQLGTNYYIKVRAGDNKYMHLKVFKSLYKDWVVNPPEDLVLTGYQVDKNKDDELTGF
B6: stefin A protein variant clone 284 (designed binder)
chain: MIPGGLSEAKPATPEIQEIVDKVKPQLEEKTGETYGKLEAVQYKTQVVYQDYDSATHGTNYYIKVRAGDNKYMHLKVFKSLYQYRNPIDKEDLVLTGYQVDKNKDDELTGF
B7: stefin A protein variant clone 280 (designed binder)
chain: MIPGGLSEAKPATPEIQEIVDKVKPQLEEKTGETYGKLEAVQYKTQVVQTKLVTWWWGTNYYIKVRAGDNKYMHLKVFKSLLGEQYIDVDEDLVLTGYQVDKNKDDELTGF
B8: stefin A protein variant clone 282 (designed binder)
chain: MIPGGLSEAKPATPEIQEIVDKVKPQLEEKTGETYGKLEAVQYKTQVVHVKIVTWWKGTNYYIKVRAGDNKYMHLKVFKSLYNPKPGIDNEDLVLTGYQVDKNKDDELTGF
B9: stefin A protein variant clone 291 (designed binder)
chain: MIPGGLSEAKPATPEIQEIVDKVKPQLEEKTGETYGKLEAVQYKTQVVFNKDLFLGWGTNYYIKVRAGDNKYMHLKVFKSLRFSAGEEWEEDLVLTGYQVDKNKDDELTGF
B10: stefin A protein variant clone 286 (designed binder)
chain: MIPGGLSEAKPATPEIQEIVDKVKPQLEEKTGETYGKLEAVQYKTQVVSWGKVSNELGTNYYIKVRAGDNKYMHLKVFKSLIEYQSPALYEDLVLTGYQVDKNKDDELTGF
B11: stefin A protein variant clone 274 (designed binder)
chain: MIPGGLSEAKPATPEIQEIVDKVKPQLEEKTGETYGKLEAVQYKTQVVRVDWWLPEVGTNYYIKVRAGDNKYMHLKVFKSLPYQYRKDPKEDLVLTGYQVDKNKDDELTGF
B12: stefin A protein variant clone 295 (designed binder)
chain: MIPGGLSEAKPATPEIQEIVDKVKPQLEEKTGETYGKLEAVQYKTQVVREDLDLFYTGTNYYIKVRAGDNKYMHLKVFKSLEFILQPWWYEDLVLTGYQVDKNKDDELTGF
B13: stefin A protein variant clone 276 (designed binder)
chain: MIPGGLSEAKPATPEIQEIVDKVKPQLEEKTGETYGKLEAVQYKTQVVSLGQAETWAGTNYYIKVRAGDNKYMHLKVFKSLFKYRHQQDKEDLVLTGYQVDKNKDDELTGF
B14: stefin A protein variant clone 283 (designed binder)
chain: MIPGGLSEAKPATPEIQEIVDKVKPQLEEKTGETYGKLEAVQYKTQVVHVLKVSSVSGTNYYIKVRAGDNKYMHLKVFKSLFYYRKRYDREDLVLTGYQVDKNKDDELTGF
B15: stefin A protein variant clone 275 (designed binder)
chain: MIPGGLSEAKPATPEIQEIVDKVKPQLEEKTGETYGKLEAVQYKTQVVSWIEISNQLGTNYYIKVRAGDNKYMHLKVFKSLYYGNTSILIEDLVLTGYQVDKNKDDELTGF
B16: stefin A protein variant clone 293 (designed binder)
chain: MIPGGLSEAKPATPEIQEIVDKVKPQLEEKTGETYGKLEAVQYKTQVVWYAWQEGWQGTNYYIKVRAGDNKYMHLKVFKSLFRKKWAQLWEDLVLTGYQVDKNKDDELTGF
B17: stefin A protein variant clone 288 (designed binder)
chain: MIPGGLSEAKPATPEIQEIVDKVKPQLEEKTGETYGKLEAVQYKTQVVYYKLVTWWRGTNYYIKVRAGDNKYMHLKVFKSLPDLNYEVTLEDLVLTGYQVDKNKDDELTGF
B18: stefin A protein variant clone 290 (designed binder)
chain: MIPGGLSEAKPATPEIQEIVDKVKPQLEEKTGETYGKLEAVQYKTQVVQEYLWKQYIGTNYYIKVRAGDNKYMHLKVFKSLRWQYRHPQTEDLVLTGYQVDKNKDDELTGF
B19: stefin A protein variant clone 281 (designed binder)
chain: MIPGGLSEAKPATPEIQEIVDKVKPQLEEKTGETYGKLEAVQYKTQVVAVFDYADPSGTNYYIKVRAGDNKYMHLKVFKSLPYRYRTHHKEDLVLTGYQVDKNKDDELTGF
B20: stefin A protein variant clone 279 (designed binder)
chain: MIPGGLSEAKPATPEIQEIVDKVKPQLEEKTGETYGKLEAVQYKTQVVAWHTKNNSIGTNYYIKVRAGDNKYMHLKVFKSLETKLAHEDIEDLVLTGYQVDKNKDDELTGF
B21: stefin A protein variant clone 292 (designed binder)
chain: MIPGGLSEAKPATPEIQEIVDKVKPQLEEKTGETYGKLEAVQYKTQVVHFGIRYAHVGTNYYIKVRAGDNKYMHLKVFKSLDYPRHHQDQEDLVLTGYQVDKNKDDELTGF
B22: stefin A protein variant clone 289 (designed binder)
chain: MIPGGLSEAKPATPEIQEIVDKVKPQLEEKTGETYGKLEAVQYKTQVVAWVKEHNLIGTNYYIKVRAGDNKYMHLKVFKSLYDQNQWSPHEDLVLTGYQVDKNKDDELTGF
B23: stefin A protein variant clone 287 (designed binder)
chain: MIPGGLSEAKPATPEIQEIVDKVKPQLEEKTGETYGKLEAVQYKTQVVLEDEWWSILGTNYYIKVRAGDNKYMHLKVFKSLPDAPAYSKSEDLVLTGYQVDKNKDDELTGF

One test addresses T1, human CD40L (human, UniProt P29965 113-261, limits assumed).
T1 sequence (looked up): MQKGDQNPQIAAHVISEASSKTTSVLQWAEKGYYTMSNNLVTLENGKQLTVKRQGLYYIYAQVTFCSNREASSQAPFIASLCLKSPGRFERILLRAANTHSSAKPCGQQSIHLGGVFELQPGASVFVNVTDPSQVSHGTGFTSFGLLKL
Kind of test: competitive ELISA: hCD40L (1 nM) premixed with the binder and added to plate-coated rhCD40 Fc; bound hCD40L detected with biotinylated anti-hCD40L polyclonal antibody. On the procedure: To evaluate the avidity of the different formats, a CD40L competitive ELISA was performed. Briefly, the plates were coated with rhCD40 Fc at 1 μg/ml and incubated overnight at 4° C. The plates were washed twice with 150 μl of washing buffer (PBS, Tween 20 0.1%) with a plate washer and saturated with Casein 5% (Sigma) in PBS for 90 minutes at room temperature (25±1° C.). […] The resulting solution was then mixed and added to the plates. The plates were washed 3 times as described previously. […] The plates were incubated for 90 minutes at room temperature (25±1° C.). The plates were then washed. PolyHRP-Streptavidin was then diluted in dilution buffer and added to the plates. The plates were incubated an additional 90 minutes at room temperature (25±1° C.). Plates were washed 3 times as described previously and the substrate (TMB, Pierce Thermo-Scientific) was added in the plate for 10 minutes. The reaction was stopped using an acidic solution and the plates were read at 450-630 nm and the resulting percent inhibition was calculated.
Take B1: the binding result is recorded as “binds”. Still for that read-out and setting: for B2 the value was “binds”.

Another test has as its target T1, human CD40L. The experiment in a line: ELISA, bacterial lysate on plate-bound human CD40L, anti-Myc tag detection.
As for B3, the binding result is listed as “binds”. Take B4: the binding entry is given as “binds”. Same read-out and setting: to B5 belongs “binds”; to B6, “binds”. On the same count and under the same terms, to B7 belongs “binds”.

As to B8, the binding result was “binds”. In the case of B9, the binding entry is given as “binds”. The same measure, in the same setting: for B10 the value was “binds”; for B11, “binds”; for B12, “binds”.

As to B13, the binding result is “binds”.

With B14, the binding result is recorded as “binds”.

As to B15, the binding entry is “binds”. As for B16, the binding result was “binds”. Take B17: the binding result is on record as “binds”. The same measure, in the same setting: for B18 the value was “binds”. Turning to B19, the binding entry is on record as “binds”. Take B20: the binding entry is “binds”. On the same count and under the same terms, for B21 the value was “binds”.

As for B22, the binding entry is recorded as “binds”. The same measure, in the same setting: to B23 belongs “binds”.

The target in another test is T1, human CD40L. Kind of test: CD40L competitive ELISA against plate-coated rhCD40 Fc.
Regarding B1, the binding result is “binds”. Same read-out and setting: to B2 belongs “binds”.
